These are yes or no findings as the source states them, for the method shown. Binding seen in cells or lysates may run through a third protein. A yes stands for co-enrichment or nearness to the bait. Other partners may have been found.
T1: γ-sarcoglycan (Sgcg), endogenous in mouse muscle (mouse (endogenous in gastrocnemius muscle)) (UniProt P82348)
T1 sequence: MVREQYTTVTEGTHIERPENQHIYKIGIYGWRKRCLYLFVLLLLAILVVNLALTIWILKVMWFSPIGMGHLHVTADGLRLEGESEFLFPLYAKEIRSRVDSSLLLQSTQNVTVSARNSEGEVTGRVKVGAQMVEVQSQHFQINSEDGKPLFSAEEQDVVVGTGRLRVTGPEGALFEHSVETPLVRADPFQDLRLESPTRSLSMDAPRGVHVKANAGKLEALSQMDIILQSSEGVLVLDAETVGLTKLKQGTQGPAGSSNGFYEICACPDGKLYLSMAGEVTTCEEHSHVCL


Molecular target: T1, γ-sarcoglycan (Sgcg), endogenous in mouse muscle (mouse (endogenous in gastrocnemius muscle))
Test: affinity purification with mass spectrometry; anti-Sgcg cross-linked to Protein A Dynabeads; RIPA1 extract (1% IGEPAL CA-630, 0.5% deoxycholate, 0.1% SDS) of the cytoskeleton-associated fraction of mouse gastrocnemius muscle (WT, Svil-/-); controls Sgcg-/- muscle and rabbit IgG; 2 h at 4 °C; LC-MS/MS, triplicates

binding	Binder
binds	PUR6 (protein, UniProt Q9DCL9 1-425) MATAVVVNIGKKLYEGKTKEVYELLDTPGRVLLQSKDQITAGNAARKNHLEGKAAISNKITSCIFQLLQEAGIKTAFTKKCGETAFIAPQCEMIPIEWVCRRIATGSFLKRNPGVQEGYKFYPPKVEMFFKDDANNDPQWSEEQLIAAKFCFAGLVIGQTEVDIMSHATQAIFEILEKSWLPQDCTLVDMKIEFGVDVTTKEIVLADVIDNDSWRLWPSGDRSQQKDKQSYRDLKEVTPEGLQMVKKNFEWVADRVELLLKSDSQCRVVVLMGSTSDLGHCEKIKKACGNFGIPCELRVTSAHKGPDETLRIKAEYEGDGIPTVFVSVAGRSNGLGPVLSGNTAYPVISCPPITPDWGAQDVWSSLRLPSGIGCSTILSPEGSAQFAAQIFGLNNHLVWAKLRASILNTWISLKQADKKVRQCNL
binds	Palladin (protein, UniProt Q9ET54 1-1408) MSETSSHDSFYDSLSDVQEEGKSADFFPGLSAFLSQEEINKSLDLARRAIDSSETEDFDSEKEISQIFSKSPISLCETPSHEEPKSGKQTSSERPQDSRRAPVQPLTGDQAERITSPGSKRKPGVSPLLASPSYIRSLRKAEKRGAKNPNPSSKPKTAQQSKAGPQSQLCDKAASFIEELTSIFREAAKPRNRSPNGESSSPDSGYLSPKNQPSALMSASASQSPTADQLDQLEMDAEVKQAQGSLCYQAHQASEETLPLAHIPHPQPQKARHLPTAPRFIQKLRSQEVAEGSRVYLECRVTGNPTPRVRWFCEGKELYNSPDVQIHCESGELHTLVIAEAFEDDTGRYTCLATNPSGSDSTSAEVFIEGASSTDSDSESLSFISKAGAMPQAQKKTTSVSLTIGSSAPKTGVTTAVIQPLSVPVQQAHSATSYLCRPDGTTMGCLLPVFTKELQNTAASEGQVVVLECRVRGAPPLQVQWFRQGSEIQDSPDFRILQKKPRSTAEPEEICTLVIAESFPEDAGIFTCSATNDYGSVTSTAQLVITSANNENCSYDSTGEPNSDHFQHFPPPPPILETGSYELASQKPSEIQQVNSPNLGFSMAALQMQFNTAERETNGVHPSHGVNGLINGKAYGNKSPPTPTALLSPTKEPPPLLAKPKLDPLKLQQLQNQVRLEQEACAWPPAPPGVPCNSSSSGSSAPPSPPFPPPPPAFPELAACASPVPSEPMSALASRATAMQSSGSFNYARPKQFIAAQNLGPASGLPTPTSSPSSSSLPSPLSPTPRPFGRAPGPPFVEPEAMWGPSSPSPPPPPPPVFSPSAAYPVPDVFPLPPPPPPLPSSTSHCASPARFGPSQTPAAFLSALLPSQPPPVAVNALGLPKGVTPAGFPKKSSRTARIASDEEIQGTKDAVIQDLERKLRFKEDLLNNGQPRLTYEERMARRLLGADSANVFNIQEPEETAANQDAGAPRASVGGPLDGQKEYKVSSCEQRLISEIEYRLERSPVDESGDEVQDPDVPVENATAPFFEMKLKHYKIFEGMPVTFTCRVAGNPKPKIYWFKDGKQISPKSDHYTIQRDLDGTCSLHTTASTLDDDGNYTIMAANPQGRVSCTGRLMVQAVNQRGRSPRSPSGHPHARRPRSRSRDSGDENEPIQERFFRPHFLQAPGDLTVQEGKLCRMDCKVSGLPTPDLSWQLDGKPIRPDSAHKMLVRENGVHSLIIEPVTSRDAGIYTCIATNRAGQNSFNLELVVAAKEAHKAPVFMEKLQNTGVADGYPVRLECRVSGVPPPQIFWKKENESLTHSTERVSMHQDNHGYICLLIQGATKEDAGWYTVSAKNEAGIVSCTARLDVYTQWHQQPQTTKPKKVRPSASRYAALSDQGLDIKAAFQPEASPSHLTLNSGLVESEDL
binds	Prdx3 (protein, UniProt P20108 63-257) TPAVTQHAPYFKGTAVVNGEFKELSLDDFKGKYLVLFFYPLDFTFVCPTEIVAFSDKANEFHDVNCEVVAVSVDSHFSHLAWINTPRKNGGLGHMNITLLSDITKQISRDYGVLLESAGIALRGLFIIDPNGVVKHLSVNDLPVGRSVEETLRLVKAFQFVETHGEVCPANWTPESPTIKPSPTASKEYFEKVHQ
binds	PURA (protein, UniProt P42669 1-321) MADRDSGSEQGGAALGSGGSLGHPGSGSGSGGGGGGGGGGGGSGGGGGAPGGLQHETQELASKRVDIQNKRFYLDVKQNAKGRFLKIAEVGAGGNKSRLTLSMSVAVEFRDYLGDFIEHYAQLGPSQPPDLAQAQDEPRRALKSEFLVRENRKYYMDLKENQRGRFLRIRQTVNRGPGLGSTQGQTIALPAQGLIEFRDALAKLIDDYGVEEEPAELPEGTSLTVDNKRFFFDVGSNKYGVFMRVSEVKPTYRNSITVPYKVWAKFGHTFCKYSEEMKKIQEKQREKRAACEQLHQQQQQQQEETTAATLLLQGEEEGEED
binds	MYPT2 (myosin phosphatase target subunit 2 / protein phosphatase 1 regulatory subunit 12B) (protein, UniProt Q8BG95 1-976) MAELEHLGGKRAESARARRAEQLRRWRGSLTEQEPAERQGAGRQLQTRRGSPRVRFEDGAVFLAACSSGDTDEVKKLLARGADINTVNVDGLTALHQACIDENLDMVKFLVENRANVNQQDNEGWTPLHAAASCGYLNIAEYFISHGASVGIVNSEGEVPSDLAEEPAMKDLLLEQVKKQGVDLEQSRKEEEQQMLQDARQWLNSGRIEDVRQARSGATALHVAAAKGYSEVLRLLIQAGYELNVQDHDGWTPLHAAAHWGVKEACSILAEALCDMDIRNKLGQTPFDVADEGLVEHLEMLQKKQDVLRSEKETRNKLIESDLNSKFQSGLFKNKEKMLYEEEIPKSQDTEEENKESSSSSSEEEEGEDEVSESETEKEADKKPEATVNHSNSEIKSRIMEQIPAPAQNTFSASSARRLSSLFNKAEEPKDESPSSWRLGLRKTGSHNMLSEVANSREALRDRGSSIYRSSSSPRISALLDDKDKERENKSYFSMLVPRRLSSTSDIEEKENRESAVNLVRSGSHTRQLWRDEAKGSETPQTIAPSTYTSTYLKRTPYKSQADSTAEKTADSVSSSTPLCVITNRPAPSTANGVPAATVFSSAGTDPSVEAREKRRSYLTPVRDEEAESLRKARSRQARQTRRSTQGVTLTDLQEAEKTFSRSRAERQAQEQPGEKLEDPGGLEGSTKKQEPSAAPTKGAGEGRSLEEEPIYHRLRYPTQPDKPTTPVSPSASRPSLYTGSHLLRTSRASGPDSENSETSTHATAAKEMDTSEKGEADLDDQSSNRLSVRERRRAKDRRRGTGINFWTNDEDETDVSEEVKEALHERLSRLESGGTNPTSSDSYSDRASARARREAREARLASLTSRVEEDSNRDYKKLYESALTENQKLKTKLQEAQLELADIKAKLEKMAQQKQEKTSDRSSVLEVEKRERRALERKMSEMEEEMKVLTELKSDNQRLKDENGALIRVISKLSK
binds	Na+-K+-2Cl- cotransporter NKCC1, endogenous in mouse muscle (protein, UniProt P55012 1-1205) MEPGPARPRLAPAARPGWGRAAGCRRRGGPARHGRASGQEDATTAGRQAGGGVRGEGTPAAGDGLGRPLGPTPSQSRFQVDPVSENAGRAAAAAAAAAAAAAAAGAAGKETPAAGKAGGESGVAKGSEEAKGRFRVNFVDPAASSSADDSLSDAAGVGGDGPNVSFQNGGDTVLSEGSSLHSGGGSGHHQQYYYDTHTNTYYLRTFGHNTMDAVPRIDHYRHTAAQLGEKLLRPSLAELHDELEKEPFEDGFANGEESTPTRDAVVAYTAESKGVVKFGWIKGVLVRCMLNIWGVMLFIRLSWIVGQAGIGLSVVVIAMATVVTTITGLSTSAIATNGFVRGGGAYYLISRSLGPEFGGAIGLIFAFANAVAVAMYVVGFAETVVELLKEHSILMIDEINDIRIIGAITVVILLGISVAGMEWEAKAQIVLLVILLLAIADFVIGTFISLESKKPKGFFGYKSEIFNENFGPDFREEETFFSVFAIFFPAATGILAGANISGDLADPQSAIPKGTLLAILITTVVYIGIAVSVGSCVVRDATGNVNDTITTELTNCTSAACKLNFDFSYCESNTCSYGLMNNFQVMSMVSGFAPLISAGIFSATLSSALASLVSAPKIFQALCKDNIYPAFQMFAKGYGKNNEPLRGYILTFLIALGFILIAELNVIAPIISNFFLASYALINFSVFHASLAKSPGWRPAFKYYNMWISLIGAILCCIVMFVINWWAALLTYVIVLGLYIYVTYKKPDVNWGSSTQALTYLSALQHSIRLSGVEDHVKNFRPQCLVMTGSPNSRPALLHLVHDFTKNVGLMICGHVHMGPRRQAMKEMSIDQARYQRWLIKNKMKAFYAPVHADDLREGAQYLMQAAGLGRMKPNTLVLGFKKDWLQADMRDVDMYINLFHDAFDIQFGVVVIRLKEGLDISHLQGQEELLSSQEKSPGTKDVVVNVDYSKKSDQDTCKSSGEKSITQKDEEEDGKTPTQPLLKKESKGPIVPLNVADQKLLEASTQFQKKQGKNTIDVWWLFDDGGLTLLIPYLLTTKKKWKDCKIRVFIGGKINRIDHDRRAMATLLSKFRIDFSDIMVLGDINTKPKKENIIAFDDMIEPYRLHEDDKEQDIADKMKEDEPWRITDNELELYKTKTYRQIRLNELLKEHSSTANIIVMSLPVARKGAVSSALYMAWLEALSKDLPPVLLVRGNHQSVLTFYS
